This note sets out measurements from publication PMC10988696, “FLIM‐FRET‐based analysis of S100A11/annexin interactions in living cells” (FEBS Open Bio, 2024).

Sequences of proteins named here, by UniProt entry; tags and fusion partners are left off.
UniProt P07355: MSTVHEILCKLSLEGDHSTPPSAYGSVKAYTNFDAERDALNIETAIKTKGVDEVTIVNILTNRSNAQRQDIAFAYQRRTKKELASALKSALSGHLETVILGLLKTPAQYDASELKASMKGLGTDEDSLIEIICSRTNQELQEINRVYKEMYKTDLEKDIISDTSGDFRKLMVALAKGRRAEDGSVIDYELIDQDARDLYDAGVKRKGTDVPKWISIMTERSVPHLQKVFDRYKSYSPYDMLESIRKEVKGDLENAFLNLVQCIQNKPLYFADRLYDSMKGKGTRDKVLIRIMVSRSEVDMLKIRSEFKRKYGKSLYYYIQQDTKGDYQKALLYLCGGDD

These are yes or no findings as the source states them, for the method shown. Binding seen in cells or lysates may run through a third protein. Some binding calls cover weakened binding; strength is not graded here.

The target of this experiment is T1, EGFP-ANXA2 (human, UniProt P07355 1-339).
T1 construct: human annexin A2 (ANXA2) with the fluorescent protein tag in the altered orientation (EGFP-ANXA2); The cloning of this orientation is not described in the methods; source: U2OS or HEK293T cells, transfected (calcium phosphate), in living cells; not shown: EGFP, N-terminal, kept
Description: FRET or BRET; FLIM-FRET (EGFP donor lifetime, mCherry acceptor) in living HEK293T cells co-transfected with both constructs. (BRET reads energy transfer from a luciferase to a nearby fluorophore.)

B1: S100A11-mCherry (natural protein, human, UniProt P31949 1-105, looked up)
chain: MAKISSPTETERCIESLIAVFQKYAGKDGYNYTLSKTEFLSFMNTELAAFTKNQKDPGVLDRMMKKLDTNSDGQLDFSEFLNLIGGLAMACHDSFLKAVPSQKRT
notes: human S100A11 wild type; cloned in pmCherry-N1 (EcoRI, BamHI); End of the tag read from the label S100A11-mCherry and the vector pmCherry-N1; also called S100A11wt; wild-type S100A11-mCherry; source: U2OS or HEK293T cells, transfected (calcium phosphate), in living cells; not shown: mCherry, C-terminal, kept
Turning to B1, the binding result is “binds”.
